Experimental data as given in patent publication US20240190910A1, “HEMI-CITRATE SALTS OF GABA-A POSITIVE […] AND CRYSTALLINE FORM THEREOF” (priority 2021, published 2024).

Assay: Compaction characterization by Heckel analysis (yield pressure, strain rate sensitivity, crushing strength)
Format: physicochemical
Conditions: for crushing strength at slow speed: 0.1 mm/s; for crushing strength at slow speed / crushing strength at fast speed: 10 mm compacts; for crushing strength at fast speed: 300 mm/s; for Strain rate sensitivity (SRS): fast vs slow yield pressure; for yield pressure, slow speed: punch speed 0.1 mm/s; for yield pressure, fast press speed: punch speed 300 mm/s
Procedure: The aim of the Heckel test is to compress the material under controlled conditions to derive the yield pressure of the bulk material. A known weight of material is compressed within a 10 mm diameter die with flat faced punches moving at a set speed. The force on the punch is accurately measured at frequent intervals whilst the displacement of the punches is used to calculate the volume of the powder. The yield pressure is calculated at slow and fast punch speeds to assess the time-dependent component to deformation of the material.
A known weight of pure drug is compacted to theoretical zero porosity using 10 mm diameter flat faced punches. The Compaction Simulator was used under the following conditions:
During compression the location of the punch tips are accurately determined, and the force measured by load cells producing a record of the primary compression parameters. Temperature and humidity were monitored at intervals during the test.
The data were analyzed by the Compaction Analysis software program to generate values for yield pressure (Py) using the Heckel equation:
where • D=the relative density of the compact; • P=Pressure applied; and • K=Gradient of the line in the linear region; [Reference: R. W. Heckel. Trans. Metall. Soc. AIME 221 (1961)1001-1008].
For some materials, the deformation characteristics change with rate of applied force. This can be estimated by calculating the Strain Rate Sensitivity. The yield pressure at high speed compression is compared to that at slow speed using the following equation: […]

Row | Compound | crushing strength at slow speed | crushing strength at fast speed | Strain rate sensitivity (SRS) [%] | yield pressure, slow speed [MPa] | compaction properties classification | yield pressure, fast press speed [MPa] | compaction properties classification (from slow speed yield pressure)
1 | COC[C@@]1(O)CC[C@@]2(C)[C@@H](CC[C@@H]3[C@@H]2CC[C@]2(C)[C@@H](C(=O)Cn4ccnc4)CC[C@@H]32)C1 [Compound 1 hemi-citrate salt Form I] | 14.2-15.2 kiloponds | 4.4-5.6 kiloponds | 21.4 | 69 | – | – | –
2 | COC[C@@]1(O)CC[C@@]2(C)[C@@H](CC[C@@H]3[C@@H]2CC[C@]2(C)[C@@H](C(=O)Cn4ccnc4)CC[C@@H]32)C1 [Compound 1 hemi-citrate salt] | – | – | – | – | soft ductile | 84 | –
3 | COC[C@@]1(O)CC[C@@]2(C)[C@@H](CC[C@@H]3[C@@H]2CC[C@]2(C)[C@@H](C(=O)Cn4ccnc4)CC[C@@H]32)C1.O=C(O)CC(O)(CC(=O)O)C(=O)O [Compound 1 mono-citrate salt Form A] | 15.6-18 kiloponds | 5-12.4 kiloponds | 28.7 | 84 | – | – | –
4 | COC[C@@]1(O)CC[C@@]2(C)[C@@H](CC[C@@H]3[C@@H]2CC[C@]2(C)[C@@H](C(=O)Cn4ccnc4)CC[C@@H]32)C1.O=C(O)CC(O)(CC(=O)O)C(=O)O [Compound 1 mono-citrate salt] | – | – | – | – | – | 109 | moderately brittle/ductile

Where a name gives a salt, the structure may show the parent alone. Read-outs that look alike come from different tables or passages of the source.
